Results taken from patent US8946507B2, “Method of selectively producing male or female sterile plants” (priority 2002, dated 2015).
Some results were stated once for a whole list of compounds, not compound by compound. At least one structure is not confirmed: it was looked up by name or label, or the drawing left a doubt.

Biological target: T1, native (unmutated) R. gracilis D-amino acid oxidase (Rhodotorula toruloides, UniProt P80324)
T1 construct: made in house
T1 sequence (P80324 25-368): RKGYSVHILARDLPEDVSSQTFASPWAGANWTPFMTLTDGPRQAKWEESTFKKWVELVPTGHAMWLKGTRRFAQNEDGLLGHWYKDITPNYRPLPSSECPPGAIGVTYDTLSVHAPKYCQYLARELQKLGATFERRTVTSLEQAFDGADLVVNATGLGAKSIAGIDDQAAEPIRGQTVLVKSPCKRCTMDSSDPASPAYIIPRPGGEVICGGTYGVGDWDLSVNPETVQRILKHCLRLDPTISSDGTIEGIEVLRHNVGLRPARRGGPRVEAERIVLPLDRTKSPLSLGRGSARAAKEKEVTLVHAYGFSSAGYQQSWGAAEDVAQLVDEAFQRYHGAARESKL
Experiment: Oxygen electrode assay of D-amino acid oxidase activity, native enzyme
Format: biochemical
Conditions: under similar conditions (25° C., pH 7.0, oxygen electrode)

| Compound | ability to oxidise (rate) [nmol/min/mg] |
| --- | --- |
| CP(=O)(O)CC[C@@H](N)C(=O)O [D-phosphinothricin] | < 0.4 |
| CP(=O)(O)CCC(N)C(=O)O (stereo not drawn) [DL phosphinothricin] | < 0.4 |
